From article PMC5843656
These are yes or no findings as the source states them, for the method shown. Binding seen in cells or lysates may run through a third protein. Binding calls can cover weak binding; strength is not graded here. Where a sequence is shown, tags or fusion partners need not be part of it.

Protein sequences, listed by entry. Tags and fused reporters are not part of them. Lines headed by an entry give the natural chain unless they say otherwise; changes in a name come on top.
UniProt Q9CZD3: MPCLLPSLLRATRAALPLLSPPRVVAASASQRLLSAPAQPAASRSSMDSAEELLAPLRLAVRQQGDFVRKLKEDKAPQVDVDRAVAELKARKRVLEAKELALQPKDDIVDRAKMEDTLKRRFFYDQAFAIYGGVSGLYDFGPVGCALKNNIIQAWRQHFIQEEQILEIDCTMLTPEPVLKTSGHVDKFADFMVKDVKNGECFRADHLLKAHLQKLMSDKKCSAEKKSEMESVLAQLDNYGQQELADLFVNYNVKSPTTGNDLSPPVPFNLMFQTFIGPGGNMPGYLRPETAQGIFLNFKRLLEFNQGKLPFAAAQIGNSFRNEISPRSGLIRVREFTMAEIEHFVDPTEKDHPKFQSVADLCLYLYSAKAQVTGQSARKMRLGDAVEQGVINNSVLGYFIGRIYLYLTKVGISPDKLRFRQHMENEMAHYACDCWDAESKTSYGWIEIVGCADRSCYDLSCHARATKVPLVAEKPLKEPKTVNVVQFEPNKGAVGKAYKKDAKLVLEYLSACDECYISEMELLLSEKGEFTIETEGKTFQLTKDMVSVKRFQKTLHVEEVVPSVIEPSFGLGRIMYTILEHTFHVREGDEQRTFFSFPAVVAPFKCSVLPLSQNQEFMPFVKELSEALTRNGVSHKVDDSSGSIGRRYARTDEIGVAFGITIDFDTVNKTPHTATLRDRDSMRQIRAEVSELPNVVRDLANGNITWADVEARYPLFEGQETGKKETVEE

Experiments:
[1] = molecular target: T1, histone deacetylase 6 (HDAC6), endogenous in mouse brain (mouse (endogenous in brain tissue)) (UniProt Q9Z2V5); assay: co-IP; mouse brain tissue lysates of Gars^+/+ and Gars^P234KY/+ littermates (postnatal day 7); antibody on protein G-sepharose, 3 h or overnight at 4 °C, washed four times with cold PBS pH 7.4; western blot
T1 sequence: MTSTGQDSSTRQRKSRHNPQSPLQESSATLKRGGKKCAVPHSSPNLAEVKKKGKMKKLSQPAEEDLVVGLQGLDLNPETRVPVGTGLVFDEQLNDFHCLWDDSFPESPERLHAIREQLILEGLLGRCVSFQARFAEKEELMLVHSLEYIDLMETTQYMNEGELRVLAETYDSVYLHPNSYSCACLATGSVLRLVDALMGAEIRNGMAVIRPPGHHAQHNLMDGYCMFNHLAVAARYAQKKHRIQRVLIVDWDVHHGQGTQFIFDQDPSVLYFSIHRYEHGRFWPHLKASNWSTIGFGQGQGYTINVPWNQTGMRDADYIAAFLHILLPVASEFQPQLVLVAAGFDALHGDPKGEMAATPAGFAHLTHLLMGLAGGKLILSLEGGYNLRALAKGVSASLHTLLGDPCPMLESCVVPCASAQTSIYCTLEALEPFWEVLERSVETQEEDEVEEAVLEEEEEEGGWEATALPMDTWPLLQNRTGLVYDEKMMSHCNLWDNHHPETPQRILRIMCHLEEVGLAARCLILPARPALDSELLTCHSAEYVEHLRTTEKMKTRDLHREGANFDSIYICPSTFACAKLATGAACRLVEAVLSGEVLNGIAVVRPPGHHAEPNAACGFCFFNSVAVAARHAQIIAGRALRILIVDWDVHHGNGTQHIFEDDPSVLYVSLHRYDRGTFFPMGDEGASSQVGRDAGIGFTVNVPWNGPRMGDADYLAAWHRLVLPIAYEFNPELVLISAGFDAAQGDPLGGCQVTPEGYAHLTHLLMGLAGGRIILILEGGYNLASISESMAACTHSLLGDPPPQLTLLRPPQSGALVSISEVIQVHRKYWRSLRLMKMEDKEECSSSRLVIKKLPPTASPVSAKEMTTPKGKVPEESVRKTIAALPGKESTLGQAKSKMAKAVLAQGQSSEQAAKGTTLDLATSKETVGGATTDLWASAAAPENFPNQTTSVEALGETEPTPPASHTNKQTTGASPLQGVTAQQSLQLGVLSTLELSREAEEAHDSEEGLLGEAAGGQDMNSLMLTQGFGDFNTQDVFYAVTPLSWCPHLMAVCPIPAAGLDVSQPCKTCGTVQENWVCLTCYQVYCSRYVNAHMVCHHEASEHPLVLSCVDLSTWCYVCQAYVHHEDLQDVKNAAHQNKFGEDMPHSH

[2] = molecular target: T2, histone deacetylase 6 (HDAC6), endogenous in NSC-34 cells (mouse (endogenous in NSC-34)) (UniProt Q9Z2V5); assay: co-IP; lysates of NSC-34 cells transfected with V5-tagged human GlyRS constructs, endogenous HDAC6; antibody on protein G-sepharose, 3 h or overnight at 4 °C, washed four times with cold PBS pH 7.4; western blot
T2 sequence: T1 sequence

Substance | binding [1] | binding [2]
glycyl-tRNA synthetase (GlyRS) P234KY of Gars^P234KY/+ CMT2D mice (from UniProt Q9CZD3) | binds | 
human GlyRS C157R, C-terminal V5-tagged |  | binds
human GlyRS E71G, C-terminal V5-tagged |  | binds weakly
human GlyRS E279D, C-terminal V5-tagged |  | binds weakly
human GlyRS G240R, C-terminal V5-tagged |  | binds weakly
human GlyRS G526R, C-terminal V5-tagged |  | binds weakly
human GlyRS G598A, C-terminal V5-tagged |  | binds
human GlyRS H418R, C-terminal V5-tagged |  | binds weakly
human GlyRS L129P, C-terminal V5-tagged |  | binds weakly
human GlyRS P234KY, C-terminal V5-tagged |  | binds
human GlyRS S211F, C-terminal V5-tagged |  | binds weakly
human GlyRS S581L, C-terminal V5-tagged |  | binds
human GlyRS wild type, C-terminal V5-tagged |  | no binding
